Measurements reported in patent publication US9265777B2, “Antiparasitic agent for fish and method of controlling proliferation of fish parasites” (NIPPON SUISAN KAISHA, LTD., priority 2009, dated 2016).

System: Cryptocaryon irritans
Assay: Examples 3 and 4: oral administration of single inhibitors and a combination against Cryptocaryon irritans on Pagrus major
Assay type: in vivo
Conditions: 300 mg/kg fish body weight/day for three days; 60 parasites per plot; P=<0.01
Text: During the rearing period, 1.4 liters/min. of seawater was supplied. […] After exposure, seven fish each were moved into six 100-liter aquariums. During the rearing period, 1.4 liters/min. of seawater was supplied. […] Experimental plot: […]

Cc1cc(NS(=O)(=O)c2ccc(N)cc2)no1 [SMXZ, sulfamethoxazole]
growth rate of parasites (body length as percentage of control plot), difference to control plot: statistically significant difference
